From PubChem BioAssay AID248 (DTP/NCI, 2004)
The list does not hold the whole screen: it is rich in T/C values a quarter to a half above the control, in often repeated tests (any T/C) and in doses without a T/C. Other doses and runs of a compound stand elsewhere. T/C is the treated group as % of the vehicle group. Some entries give survivors of the animals treated and no T/C: the source files T/C as zero there, which appears to mark a toxic dose or a test without result, not a measured value. Some doses without a T/C left all or most animals alive at the check, yet need not have been tolerated: the source hardly ever lists a survival T/C far under the control, and the zero likely stands for such cases as well. Survivors were counted at the toxicity check, usually on the fifth day, unless a day is given; later deaths do not show. Schedules are NCI's codes, taken here to give the interval after Q, in days (D) or hours (H), and the number of doses after X. Where survival is the endpoint, the PubChem record calls one and a half times the control and up active, and a quarter to a half above the control has no call in these data; cut-offs in other NCI protocols can differ. Some entries hold several experiments; their values stand side by side, smallest first.

System: L1210 leukemia ip in BDF1 mice, survival T/C
Assay: NCI In Vivo Anticancer Drug Screen. Data for tumor model L1210 Leukemia (intraperitoneal) in B6D2F1 (BDF1) mice
Details: T/C endpoint: mean survival time, higher T/C = longer survival
[1] = dose: 100.0 mg/kg/injection, schedule: Q04DX003 (ip), vehicle: Klucel (hydroxypropylcellulose) (HPC)
[2] = dose: 200.0 mg/kg/injection, schedule: Q04DX003 (ip), vehicle: Klucel (hydroxypropylcellulose) (HPC)
[3] = dose: 400.0 mg/kg/injection, schedule: Q04DX003 (ip), vehicle: Klucel (hydroxypropylcellulose) (HPC)
[4] = dose: 100.0 mg/kg/injection, schedule: Q04DX003 (ip), vehicle: saline
[5] = dose: 200.0 mg/kg/injection, schedule: Q04DX003 (ip), vehicle: saline
[6] = dose: 400.0 mg/kg/injection, schedule: Q04DX003 (ip), vehicle: saline
[7] = dose: 100.0 mg/kg/injection, schedule: Q01DX001 (ip), vehicle: saline
[8] = dose: 200.0 mg/kg/injection, schedule: Q01DX001 (ip), vehicle: saline
[9] = dose: 400.0 mg/kg/injection, schedule: Q01DX001 (ip), vehicle: saline
[10] = dose: 200.0 mg/kg/injection, schedule: Q01DX009 (ip), vehicle: Klucel (hydroxypropylcellulose) (HPC)
[11] = dose: 200.0 mg/kg/injection, schedule: Q01DX009 (ip), vehicle: saline

Q: What does the source list for `COC(=O)[C@H]1[C@H]2C[C@@H]3c4[nH]c5cc(OC)ccc5c4CCN3C[C@H]2C[C@@H](OC(=O)/C=C/c2cc(OC)c(OC)c(OC)c2)[C@@H]1OC`?
A: survivor count (dose: 5.0 mg/kg/injection, schedule: Q01DX009 (ip), vehicle: saline with Tween-80): 6 of 6; survivor count (dose: 10.0 mg/kg/injection, schedule: Q01DX009 (ip), vehicle: saline with Tween-80): 6 of 6; survivor count (dose: 20.0 mg/kg/injection, schedule: Q01DX009 (ip), vehicle: saline with Tween-80): 6 of 6; survivor count [1]: 4 of 4; survivor count [2]: 2 of 4; survivor count [3]: 1 of 4

Q: `C[N+](C)(C)CCOC(=O)Nc1ccc(C(c2ccc(NC(=O)OCC[N+](C)(C)C)cc2)c2ccc(NC(=O)OCC[N+](C)(C)C)cc2)cc1` was tested. Which survivor count (dose: 1.0 mg/kg/injection, schedule: Q01DX009 (ip), vehicle: saline with Tween-80) did it give?
A: 1 of 6

Q: And the survivor count (dose: 5.0 mg/kg/injection, schedule: Q04DX003 (ip), vehicle: saline)?
A: 0 of 6

Q: And the survivor count (dose: 10.0 mg/kg/injection, schedule: Q04DX003 (ip), vehicle: saline)?
A: 0 of 6

Q: What about the survivor count (dose: 20.0 mg/kg/injection, schedule: Q04DX003 (ip), vehicle: saline) of the same compound?
A: 0 of 6

Q: What about the survivor count [4] of the same compound?
A: 0 of 6

Q: And the survivor count [5]?
A: 0 of 6

Q: And the survivor count [6]?
A: 0 of 6

Q: Which results are given for `CC1CC(C)(C)[N+](C)=C(CC(O)(c2ccccc2)c2ccccc2)O1` (stereo not given)?
A: survivor count [1]: 0 of 6; survivor count [2]: 0 of 6; survivor count [3]: 0 of 6

Q: With `C[Si]1(C)CCCSC1` as the compound, how does the survivor count [7] read?
A: 3 of 6

Q: What about the survivor count [8] of the same compound?
A: 0 of 6

Q: What about the survivor count [9] of the same compound?
A: 0 of 6

Q: With `COc1cc(/C=C2\C(=O)NC(=O)N(c3ccccc3)C2=O)cc(OC)c1OC` as the compound, how does the survivor count (dose: 200.0 mg/kg/injection, schedule: Q01DX009 (ip), vehicle: saline with Tween-80) read?
A: 3 of 6

Q: Which survivor count (dose: 59.0 mg/kg/injection, schedule: Q01DX009 (ip), vehicle: carboxymethylcellulose (CMC)) does the source give for `Cc1ccc(NC(=O)N(C)N=O)cc1` here?
A: 4 of 6

Q: What about the survivor count (dose: 89.0 mg/kg/injection, schedule: Q01DX009 (ip), vehicle: carboxymethylcellulose (CMC)) of the same compound?
A: 1 of 6

Q: And the survivor count (dose: 133.0 mg/kg/injection, schedule: Q01DX009 (ip), vehicle: carboxymethylcellulose (CMC))?
A: 3 of 6

Q: And the T/C (dose: 200.0 mg/kg/injection, schedule: Q01DX001 (ip), vehicle: carboxymethylcellulose (CMC))?
A: 134 and 140 % of control

Q: What about the survivor count (dose: 200.0 mg/kg/injection, schedule: Q01DX009 (ip), vehicle: carboxymethylcellulose (CMC)) of the same compound?
A: 0 of 6

Q: And the survivor count (dose: 300.0 mg/kg/injection, schedule: Q01DX001 (ip), vehicle: carboxymethylcellulose (CMC))?
A: 1 of 6

Q: What about the survivor count (dose: 400.0 mg/kg/injection, schedule: Q01DX001 (ip), vehicle: carboxymethylcellulose (CMC)) of the same compound?
A: 0 of 4

Q: With `CC1CC(N2CSC(=S)N(C3CC(C)CC(C)(C)C3)C2)CC(C)(C)C1` (stereo not given) as the compound, how does the survivor count (dose: 50.0 mg/kg/injection, schedule: Q01DX009 (ip), vehicle: Klucel (hydroxypropylcellulose) (HPC)) read?
A: 6 of 6

Q: What about the survivor count [10] of the same compound?
A: 6 of 6

Q: And the survivor count (dose: 400.0 mg/kg/injection, schedule: Q01DX009 (ip), vehicle: Klucel (hydroxypropylcellulose) (HPC))?
A: 6 of 6

Q: What does the source list for `Brc1ccc(Br)c(-c2nnc(-c3cccc4ccccc34)o2)c1`?
A: survivor count [8]: 5 of 6; survivor count [9]: 6 of 6

Q: How did the survivor count (dose: 200.0 mg/kg/injection, schedule: Q04DX002 (ip), vehicle: saline) turn out when `CC1C(N2CCCCC2)CS1(=O)=O` (stereo not given) was run?
A: 2 of 3

Q: What about the survivor count (dose: 400.0 mg/kg/injection, schedule: Q04DX002 (ip), vehicle: saline) of the same compound?
A: 0 of 3

Q: For `CCN(CC)c1ccc2nc3ccc(N(CC)CC)cc3[n+](-c3ccccc3)c2c1`, which survivor count (dose: 12.0 mg/kg/injection, schedule: Q01DX009 (ip), vehicle: saline) is on record?
A: 0 of 6

Q: And the survivor count (dose: 12.5 mg/kg/injection, schedule: Q01DX009 (ip), vehicle: saline)?
A: 6 of 6

Q: And the survivor count (dose: 25.0 mg/kg/injection, schedule: Q01DX009 (ip), vehicle: saline)?
A: 0 of 6

Q: And the survivor count (dose: 50.0 mg/kg/injection, schedule: Q01DX009 (ip), vehicle: saline)?
A: 0 of 6

Q: And the survivor count (dose: 100.0 mg/kg/injection, schedule: Q01DX009 (ip), vehicle: saline)?
A: 0 of 6

Q: And the survivor count [11]?
A: 0 of 6

Q: And the survivor count (dose: 400.0 mg/kg/injection, schedule: Q01DX009 (ip), vehicle: saline)?
A: 0 of 6

Q: Which survivor count (dose: 100.0 mg/kg/injection, schedule: Q01DX009 (ip), vehicle: Klucel (hydroxypropylcellulose) (HPC)) does the source give for `O=[N+]([O-])c1cccc(-[n+]2cc([O-])on2)c1` here?
A: 5 of 6

Q: What about the survivor count [10] of the same compound?
A: 0 of 6

Q: What about the survivor count [3] of the same compound?
A: 2 of 6

Q: What does the source list for `Cn1c(=O)n(C)c2ccccc21`?
A: survivor count [11]: 0 of 6; survivor count [6]: 2 of 6

Q: For `CCOC(=O)Nc1cc(NCCc2ccccc2)c(N)c(N)n1`, which survivor count [7] is on record?
A: 6 of 6

Q: And the survivor count [8]?
A: 1 of 6

Q: What about the survivor count [9] of the same compound?
A: 0 of 6

Q: Which results are given for `O=C1CC(=O)C(Br)=C1Br`?
A: survivor count (dose: 6.0 mg/kg/injection, schedule: Q04DX003 (ip), vehicle: saline with Tween-80): 2 of 6; survivor count (dose: 100.0 mg/kg/injection, schedule: Q04DX003 (ip), vehicle: saline with Tween-80): 2 of 6; survivor count (dose: 200.0 mg/kg/injection, schedule: Q04DX003 (ip), vehicle: saline with Tween-80): 0 of 6; survivor count (dose: 400.0 mg/kg/injection, schedule: Q04DX003 (ip), vehicle: saline with Tween-80): 0 of 6

Q: How did the survivor count (dose: 200.0 mg/kg/injection, schedule: Q01DX015 (ip), vehicle: carboxymethylcellulose (CMC)) turn out when `O=C(Nc1cccc(Cl)c1)Nc1cccc(C(F)(F)F)c1` was run?
A: 2 of 6

Q: And the survivor count (dose: 300.0 mg/kg/injection, schedule: Q01DX015 (ip), vehicle: carboxymethylcellulose (CMC))?
A: 2 of 6

Q: And the survivor count (dose: 400.0 mg/kg/injection, schedule: Q01DX015 (ip), vehicle: carboxymethylcellulose (CMC))?
A: 1 of 6

Q: Which results are given for `CCCCn1ccnc1`?
A: survivor count (dose: 50.0 mg/kg/injection, schedule: Q04DX003 (ip), vehicle: saline): 1 of 6; survivor count [4]: 0 of 6; survivor count [5]: 0 of 6; survivor count [6]: 0 of 6
